Source: PubChem BioAssay AID1508597 (Cure First, 2020)

Aim: 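Survival screen with siRNA in ovarian cancer cells derived from patients, with or without rucaparib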 (primary screen)
System: human ovarian carcinoma lines grown from tumours: OCI-P5x (papillary serous) and OCI-C5x (clear cell)
Reagents: siRNA pool against human genes, 1.25 pmol siRNA per well
Time to read-out: 72 h or 96 h, depending on the cell culture
Treatment: rucaparib 20 µM (about IC30) or vehicle, present until read-out
Detection: 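ATP luminescence measured at 72 or 96 h according to the culture, then normalised and expressed as percent viability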
Reading the numbers: viability, normalised: higher = more viable cells remaining
Call rule: 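a well counts as a hit if its normalised viability is under 80 percent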
Calls: active = viability under 80%; inactive = viability 80% or more
Here is one part, drawn at random, of about 2,100 reagents. 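Calls flag viability under 80% in either arm, not effects specific to rucaparib; the reference for percent is not stated.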 Unmarked entries are inactive. Not given: the 100% reference.

FGF19 (fibroblast growth factor 19), rucaparib or vehicle Rucaparib, cell line OCI-C5x (clear cell), technical replicate 1 scored viability, normalised (%) = 29 (active).
With FGF19 (fibroblast growth factor 19), rucaparib or vehicle Rucaparib, cell line OCI-C5x (clear cell), technical replicate 2 the deposit lists viability, normalised (%) = 28.2 (active).
For FGF19 (fibroblast growth factor 19), rucaparib or vehicle Rucaparib, cell line OCI-C5x (clear cell), technical replicate 3, the values are viability, normalised (%) = 38.6 (active).
For FGF19 (fibroblast growth factor 19), rucaparib or vehicle Rucaparib, cell line OCI-P5x (serous), technical replicate 1, the entry reads viability, normalised (%) = 47 (active).
FGF19 (fibroblast growth factor 19), rucaparib or vehicle Rucaparib, cell line OCI-P5x (serous), technical replicate 2 gave viability, normalised (%) = 59.6 (active).
FGF19 (fibroblast growth factor 19), rucaparib or vehicle Rucaparib, cell line OCI-P5x (serous), technical replicate 3 showed viability, normalised (%) = 61.5 (active).
With FGF19 (fibroblast growth factor 19), rucaparib or vehicle Vehicle, cell line OCI-C5x (clear cell), technical replicate 1, the entry reads viability, normalised (%) = 52.2 (active).
With FGF19 (fibroblast growth factor 19), rucaparib or vehicle Vehicle, cell line OCI-C5x (clear cell), technical replicate 2, the values are viability, normalised (%) = 53.2 (active).
For FGF19 (fibroblast growth factor 19), rucaparib or vehicle Vehicle, cell line OCI-C5x (clear cell), technical replicate 3, the entry reads viability, normalised (%) = 48 (active).
FGF19 (fibroblast growth factor 19), rucaparib or vehicle Vehicle, cell line OCI-P5x (serous), technical replicate 1 scored viability, normalised (%) = 66.3 (active).
FGF19 (fibroblast growth factor 19), rucaparib or vehicle Vehicle, cell line OCI-P5x (serous), technical replicate 2 showed viability, normalised (%) = 78.4 (active).
FGF19 (fibroblast growth factor 19), rucaparib or vehicle Vehicle, cell line OCI-P5x (serous), technical replicate 3 scored viability, normalised (%) = 71.8 (active).
